PubChem BioAssay AID1259254, NCATS – 2017

Screen: 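Finding genes that stop cells copying their DNA twice in one cycle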 (primary screen)
Cells: human HCT116 colorectal cancer cells
Knock-down reagent: single siRNA against human genes
Time to read-out: 3 days
Measured: 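Imaged Hoechst DNA stain sorts each cell into a cycle phase by DNA amount; per plate, G2 fraction set to 0% for non-targeting and 100% for GMNN siRNA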
Direction: G2 robust z-score and G2 cells, % of GMNN control: higher = more G2 cells, more excess DNA replication; raw share of cells in G2: higher = larger share of cells with G2 DNA content
Rule for the call: 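Active siRNAs have a G2 robust z of 5 or more median absolute deviations over the median, which in these data means about 38% or higher of GMNN control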
Shown is one part, drawn at random, of about 59,000 reagents. About 1,550 of all reagents (2.6%) count as active. 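G2 share is only a proxy for re-replication; each gene was hit by three separate siRNAs, and active genes were retested.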 The raw values are shown without normalisation. Reagents against one gene are numbered here. Not given: the amount of reagent.

gene knocked down | reagent | G2 robust z-score | G2 cells, % of GMNN control | raw share of cells in G2 (%) | activity call
FGF6 | 1 | 1.18 | 11.3 | 7.94 | inactive
FGF6 | 2 | -0.82 | -2.8 | 3.99 | inactive
FGF6 | 3 | -0.253 | 1.19 | 4.52 | inactive
AGR2 | 1 | -0.346 | 0.535 | 5.57 | inactive
AGR2 | 2 | -0.595 | -1.22 | 3.44 | inactive
AGR2 | 3 | -0.625 | -1.43 | 2.89 | inactive
CD96 | 1 | -1.11 | -4.81 | 1.93 | inactive
CD96 | 2 | 1.12 | 10.9 | 10.8 | inactive
CD96 | 3 | -0.441 | -0.132 | 3.28 | inactive
TRAM1L1 | 1 | -0.777 | -2.5 | 3.23 | inactive
TRAM1L1 | 2 | -0.328 | 0.662 | 3.31 | inactive
TRAM1L1 | 3 | -0.573 | -1.07 | 2.19 | inactive
ALPI | 1 | -1.32 | -6.33 | 2.74 | inactive
ALPI | 2 | -1.52 | -7.7 | 1.98 | inactive
ALPI | 3 | 0.544 | 6.8 | 5.54 | inactive
FRMD5 | 1 | -0.922 | -3.52 | 2.59 | inactive
FRMD5 | 2 | -0.773 | -2.47 | 2.23 | inactive
FRMD5 | 3 | 0.38 | 5.64 | 4.71 | inactive
FCER1G | 1 | -0.441 | -0.136 | 5.19 | inactive
FCER1G | 2 | -1.38 | -6.76 | 1.25 | inactive
FCER1G | 3 | -0.56 | -0.971 | 4.89 | inactive

Quoted from the listing for reference:
gene knocked down | reagent | G2 robust z-score | G2 cells, % of GMNN control | raw share of cells in G2 (%) | activity call
ALPI | 1 | -1.32 | -6.33 | 2.74 | inactive
ALPI | 2 | -1.52 | -7.7 | 1.98 | inactive
ALPI | 3 | 0.544 | 6.8 | 5.54 | inactive
FRMD5 | 1 | -0.922 | -3.52 | 2.59 | inactive
FRMD5 | 2 | -0.773 | -2.47 | 2.23 | inactive
FRMD5 | 3 | 0.38 | 5.64 | 4.71 | inactive
FCER1G | 1 | -0.441 | -0.136 | 5.19 | inactive

Continued.
gene knocked down | reagent | G2 robust z-score | G2 cells, % of GMNN control | raw share of cells in G2 (%) | activity call
NUB1 | 1 | 0.398 | 5.77 | 5.67 | inactive
NUB1 | 2 | 1.53 | 13.7 | 10.1 | inactive
NUB1 | 3 | 6.1 | 45.9 | 18.4 | active
NET1 | 1 | -0.8 | -2.66 | 4.13 | inactive
NET1 | 2 | -0.205 | 1.53 | 4.58 | inactive
NET1 | 3 | -0.274 | 1.04 | 3.78 | inactive
MRPS28 | 1 | -0.615 | -1.36 | 5.55 | inactive
MRPS28 | 2 | -0.948 | -3.71 | 2.96 | inactive
MRPS28 | 3 | -0.491 | -0.491 | 3.83 | inactive
TET1P1 | 1 | -0.181 | 1.69 | 4.27 | inactive
TET1P1 | 2 | -0.667 | -1.73 | 2.76 | inactive
TET1P1 | 3 | 3.09 | 24.7 | 11.5 | inactive
SPCS2 | 1 | 2.34 | 19.4 | 14.1 | inactive
SPCS2 | 2 | 0.802 | 8.61 | 7.54 | inactive
SPCS2 | 3 | -0.124 | 2.1 | 4.17 | inactive
SEC24A | 1 | 1.98 | 16.9 | 9.3 | inactive
SEC24A | 2 | 0.273 | 4.89 | 8.41 | inactive
SEC24A | 3 | -1.24 | -5.74 | 3.2 | inactive
XPC | 1 | 2.79 | 22.6 | 15.1 | inactive
XPC | 2 | 2.77 | 22.4 | 11.9 | inactive
XPC | 3 | 0.587 | 7.1 | 6.9 | inactive
RAB19 | 1 | -0.596 | -1.22 | 4.48 | inactive
RAB19 | 2 | -0.863 | -3.1 | 3.15 | inactive
RAB19 | 3 | 0.491 | 6.42 | 8.68 | inactive
OVCH1 | 1 | -0.638 | -1.52 | 4.96 | inactive
OVCH1 | 2 | -0.138 | 1.99 | 5.13 | inactive
OVCH1 | 3 | -1.08 | -4.6 | 2.55 | inactive
